Assay results taken from EP0992240A1, “THERAPEUTIC AGENT FOR ERECTION FAILURE” (MOCHIDA PHARMACEUTICAL CO., LTD., priority 1997, dated 1998).
For at least one compound, name, drawing or mass did not settle the structure.

System: PDE type I
Experiment: PDE inhibiting activity, type I
Format: biochemical, dog
Conditions: PDE purified from canine aorta; 1 µM substrate cGMP or cAMP; read-out: Inhibition Activity IC50 (µM) Type I
Description: On the basis of the method of Lugnier et al. (Biochem. Pharmacol., 35, 1743-1751, 1986), PDE was purified from the aorta in a dog. The canine aorta was minced and homogenized with a Waring Blender and a glass homogenizer in six volumes of a Tris-HCl buffer solution (pH 7.5, 20 mM) containing 2 mM magnesium acetate, 5 mM ethylenediaminetetraacetic acid (EDTA), 100 µg/mL of phenylmethylsulforyl fluoride and 15 mM 2-mercaptoethanol (2-ME), and centrifuged at 1200 x g for 30 min. The supernatant was separated and salted out with ammonium sulfate which was added to 45% saturation. The resulting precipitated fraction was resuspended in a Tris-HCl buffer solution (pH 7.5, 20 mM) containing 2 mM magnesium acetate and 1 mM 2-ME, dialyzed overnight and applied to a DEAE-trisacryl column (DEAE […] M:IBF). By elution with a sodium chloride gradient (0 - 0.4 M), PDE types V and III were separated from the other isozymes. […]
The thus obtained PDE types V, III and I were measured for their activity in accordance with the method of Thompson et al. (Adv. Cyclic Nucleotide Res., 10, 69-72, 1979) and the method of Wells et al. (Biochim. Biophys. Acta, 384, 430-443, 1975). […] The activity of each test compound was determined as a percentage of the PDE activity measured when it was added as a dimethyl sulfoxide solution (DMSO) and its IC50 (50% inhibition concentration) was calculated by the probit method. […]

O=C(COc1cc2c(=O)c(Cc3cccnc3)cn3c4ccc(Br)cc4c(c1)c23)OC1CCCCC1 [Example 9, 10-bromo-2-cyclohexyloxycarbonyl-methyloxy-5-(3-pyridylmethyl)-4H-pyrido[3,2,1-jk]carbazol-4-one]
IC50: > 30 µM
